Values of other authors in patent publication US6716412B2, “Methods of ultrasound treatment using gas or gaseous precursor-filled compositions” (Imarx Therapeutics, Inc., priority 1997, dated 2004).
Some of these results come from one statement about several compounds together.

Molecular target: T1, interluekin-1 (IL-1) receptor (Homo sapiens, UniProt P14778)
T1 sequence (P14778 18-569): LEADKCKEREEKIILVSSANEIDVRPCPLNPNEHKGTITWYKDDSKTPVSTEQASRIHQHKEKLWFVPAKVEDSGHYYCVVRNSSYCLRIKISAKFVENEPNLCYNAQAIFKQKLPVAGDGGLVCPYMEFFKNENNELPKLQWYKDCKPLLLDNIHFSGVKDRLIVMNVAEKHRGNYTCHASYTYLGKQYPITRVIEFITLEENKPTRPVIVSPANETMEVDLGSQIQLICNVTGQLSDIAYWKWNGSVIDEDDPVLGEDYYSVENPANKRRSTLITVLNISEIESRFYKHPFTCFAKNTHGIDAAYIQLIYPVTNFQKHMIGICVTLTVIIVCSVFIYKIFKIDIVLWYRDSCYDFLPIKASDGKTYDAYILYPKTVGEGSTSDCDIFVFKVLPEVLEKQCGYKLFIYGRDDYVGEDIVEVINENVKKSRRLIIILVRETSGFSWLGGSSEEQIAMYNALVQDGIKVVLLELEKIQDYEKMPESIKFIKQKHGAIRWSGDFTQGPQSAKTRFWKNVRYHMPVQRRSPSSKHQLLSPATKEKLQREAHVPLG
Details: IL-1 antagonists

In the case of “Ac-Phe-Glu-Trp-Pro-Gly-Trp-Tyr-Gln-Aze-Tyr-Ala-Leu-Pro-Leu- [SEQ ID NO: 3, IL-1 antagonist peptide usable as targeting ligand]”, the Kd is given as 10^−10 to 10^−12 M.

In the case of “AcPhe-Glu, Trp-Pro-Gly-Trp-Tyr-Gln-Aze-Tyr-Ala-Leu-Pro-Leu-CONH2 [SEQ ID NO: 2, IL-1 antagonist peptide usable as targeting ligand]”, the Kd is listed as 10^−10 to 10^−12 M.
